From PMC3907856 come the findings set out here.

No constants are given. Whether binding was seen depends on the method and setting. In cells and extracts the contact can be indirect. Binding calls can cover weak binding; strength is not graded here.

The assay addresses T1, phostensin-β (human) (UniProt Q6NYC8).
T1 sequence: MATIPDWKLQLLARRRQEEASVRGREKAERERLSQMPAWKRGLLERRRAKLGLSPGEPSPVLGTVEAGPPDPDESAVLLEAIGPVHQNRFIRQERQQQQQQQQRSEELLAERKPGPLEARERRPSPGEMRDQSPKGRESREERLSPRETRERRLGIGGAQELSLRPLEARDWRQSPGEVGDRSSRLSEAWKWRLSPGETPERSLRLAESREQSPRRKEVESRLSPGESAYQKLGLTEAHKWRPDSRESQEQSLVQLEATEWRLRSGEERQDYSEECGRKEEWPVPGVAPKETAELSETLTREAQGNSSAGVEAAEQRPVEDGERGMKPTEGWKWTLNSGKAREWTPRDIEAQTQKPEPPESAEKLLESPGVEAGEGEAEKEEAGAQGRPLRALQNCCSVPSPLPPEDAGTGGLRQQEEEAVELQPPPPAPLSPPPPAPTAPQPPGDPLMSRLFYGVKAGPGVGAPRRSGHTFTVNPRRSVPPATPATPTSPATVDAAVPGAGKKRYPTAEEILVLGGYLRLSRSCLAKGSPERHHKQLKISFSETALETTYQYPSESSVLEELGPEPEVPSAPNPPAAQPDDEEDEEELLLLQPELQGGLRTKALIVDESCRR
In words: co-IP; 293T cells co-transfected with pPP1-EGFP and pCMV-SPORT6 phostensin-β, 48 h; RIPA extract (300 ug) precipitated by PT2 on protein G-Sepharose; western blot with anti-EGFP antibody.

For PP1-EGFP, the binding result is “binds”.
